Measurements from PubChem BioAssay AID493014 (National Center for Advancing Translational Sciences (NCATS), 2011).
The list shows a part of the results. The main result of the screen is listed elsewhere. These columns were measured beside it and carry no call. Most of these compounds were active or inconclusive in the main read-out, so they are no random draw. The note in brackets gives the kind of curve behind each potency; many fits are weak.

Test: qHTS Assay to Find Inhibitors of Chronic Active B-Cell Receptor Signaling
Settings: ABC-DLBCL IkBa-CBG/CBR reporter, luminescence ratio (green luciferase fused to IkBa over red control in TMD8 lymphoma cells), 4 h
How it was run: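 Cell line TMD8 (human ABC DLBCL), stably expressing tet-inducible CBG68-IkBa fusion and CBR; IMDM/0.5% FBS; cpd up to 46 uM; dox induction, 4 h, 37C/5% CO2; dual luminescence; green/red ratio; MG132 control.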

[1] = measured here: CBR red luminescence, cell number

Row | SMILES | AC50 [1] | AC50 (measured here: IkBa-CBG green luminescence)
1 | O=C(Oc1ccc2cc(Br)ccc2c1)N1CCCCCC1 | 0.58 µM [rising, partial curve, poor fit] | 
2 | N/C(=N\OC(=O)N1c2ccccc2Sc2ccccc21)c1ccc(Br)cc1 | 7.31 µM [falling, partial curve] | 
3 | CCN(CC)c1ccc2c(c1)CCCN2 | 18.4 µM [rising, single point] | 
4 | COc1c(Cl)cc(C(=O)NN)cc1Cl | 2.82 µM [rising, full curve] | 2 µM [falling, full curve]
5 | CCOC(=O)C1CCN(C(=O)Cc2c(C(=O)O)n(CC)c3ccccc23)CC1 | 0.00366 µM [rising, full curve, poor fit] | 
6 | Cc1ccccc1Cn1nnc(C(=O)Nc2cccc(C)c2C)c1N | 15.8 µM [falling, single point] | 
7 | Cc1ccc(C(=O)Nc2ccccc2C(=O)NCC2CCCO2)cc1 (stereo not drawn) | 25.1 µM [falling, single point] | 
8 | CC(=O)NC(NC(=S)Nc1ccc(N=Nc2ccccc2C)cc1C)C(Cl)(Cl)Cl (stereo not drawn) | 20 µM [falling, partial curve, poor fit] | 
9 | O=c1c2c([N+](=O)[O-])cc([N+](=O)[O-])cc2sn1-c1ccc(Br)cc1 | 16.4 µM [falling, single point] | 
10 | CCCSc1nnc(NC(=O)Nc2ccc(F)cc2)s1 | 0.651 µM [rising, full curve, poor fit] | 
11 | COc1ccc(-c2nc(SC)n(C(=O)c3ccco3)n2)cc1 | 0.103 µM [rising, full curve, poor fit] | 
12 | CCOC(=O)c1nn(-c2ccc3c(c2)OCCO3)cc1O | 28.2 µM [falling, single point] | 
13 | Cn1ncc(Cl)c1C(=O)Nc1nc2ccc(Cl)cc2s1 | 5.8 µM [falling, full curve] | 
14 | CC(C)[C@H](NC(=O)c1ccccc1)C(=O)OCC(=O)NCc1ccc(F)cc1 | 25.1 µM [rising, single point] | 
15 | Nc1ncc(CN2CCCC(C(=O)Nc3ccc(-c4ccco4)cc3)C2)cn1 (stereo not drawn) | 15.8 µM [falling, single point] | 
16 | O=C(CO/N=C/c1ccc(OC(F)F)cc1)NCc1ccc(F)cc1 | 5.01 µM [falling, partial curve, poor fit] | 
17 | CCC(=O)Nc1c(-c2ccccc2Cl)c(=O)c2ccccc2n1CC | 6.31 µM [rising, single point] | 
18 | CCC(C)[C@H](NC(=O)N1CC(=O)Nc2ccccc21)C(=O)N[C@H](Cc1c[nH]c2ccccc12)C(=O)O (stereo partly drawn) | 3.55 µM [falling, single point] | 
19 | CCOC(=O)C1=CN(Cc2cccc(I)c2)S(=O)(=O)N(C)C1C (stereo not drawn) | 29.1 µM [falling, single point] | 
20 | CC(C)c1ccc(NC(=O)c2ccc(=O)n(Cc3ccccc3)c2)cc1 | 5.62 µM [rising, single point] | 
21 | CN(CCC#N)C(=O)c1cc2c(s1)-c1ccccc1SC2 | 3.55 µM [rising, single point] | 

Arranged by molecular weight (smallest number first): part of the list above.
Row | SMILES | AC50 [1] | AC50 (measured here: IkBa-CBG green luminescence)
6 | Cc1ccccc1Cn1nnc(C(=O)Nc2cccc(C)c2C)c1N | 15.8 µM [falling, single point] | 
16 | O=C(CO/N=C/c1ccc(OC(F)F)cc1)NCc1ccc(F)cc1 | 5.01 µM [falling, partial curve, poor fit] | 
14 | CC(C)[C@H](NC(=O)c1ccccc1)C(=O)OCC(=O)NCc1ccc(F)cc1 | 25.1 µM [rising, single point] | 
18 | CCC(C)[C@H](NC(=O)N1CC(=O)Nc2ccccc21)C(=O)N[C@H](Cc1c[nH]c2ccccc12)C(=O)O (stereo partly drawn) | 3.55 µM [falling, single point] | 

Additional results follow.

Row | SMILES | AC50 [1] | AC50 (measured here: IkBa-CBG green luminescence)
22 | COCCCNCCOc1ccc(C(C)(C)c2ccccc2)cc1 | 20.6 µM [falling, single point] | 
23 | COC(=O)Oc1ccc(/C=N/NC(=O)CN(c2ccccc2Cl)S(C)(=O)=O)cc1OC | 3.66 µM [falling, partial curve, poor fit] | 
24 | Cc1ccc(C)c(N2CCN(S(=O)(=O)c3ccc(-c4cc(C)no4)s3)CC2)c1 | 0.398 µM [falling, partial curve, poor fit] | 
25 | Cc1cccn2cc(CNC(=O)CC3CCCC3)nc12 | 18.4 µM [rising, partial curve, poor fit] | 
26 | COc1ccc(S(=O)(=O)NC2CC2)cc1Br | 35.5 µM [rising, single point] | 
27 | CC(C)c1cc(=O)n2[nH]c(SCc3ccccc3)nc2n1 | 10 µM [falling, partial curve] | 
28 | O=C(OCCc1ccccc1)c1cc(O)c(O)c(O)c1 | 0.092 µM [rising, full curve, poor fit] | 
29 | COC(=O)c1c(-c2ccc(OC)cc2)sc2ccc(OC)cc12 | 25.9 µM [rising, partial curve, poor fit] | 
30 | CCCSc1nnc(NC(=O)c2ccco2)s1 | 7.94 µM [falling, partial curve] | 
31 | O=c1cc(/C=C/c2cccs2)[nH]c2ccccc12 | 2.06 µM [falling, full curve, poor fit] | 
32 | COc1ccc(/C=C/C(=O)Nc2ccc(-n3nncc3-c3ccccc3)cc2)cc1OC | 11.6 µM [falling, single point] | 
33 | S=C1NC2(CCCCC2)NN1c1ccccc1 | 35.5 µM [rising, single point] | 
34 | CCc1ccc(CCC(=O)Nc2ccc(C)c(C)c2)o1 | 0.82 µM [falling, partial curve, poor fit] | 
35 | COc1cn(-c2ccccc2)nc1C(=O)OCC(=O)Nc1ccc(C)c(C)c1 | 25.9 µM [rising, partial curve, poor fit] | 
36 | CCOC(=O)c1sc(C)c2c1NC1(CCCCC1)NC2=O | 35.5 µM [falling, single point] | 
37 | CCCCCSc1nnc2c(n1)OC(c1cccn1C)N(C(C)=O)c1ccccc1-2 (stereo not drawn) | 10 µM [falling, partial curve] | 
38 | O=C(Nc1cc(S(=O)(=O)N2CCOCC2)ccc1N1CCOCC1)c1ccccc1Cl | 23.1 µM [rising, single point] | 
39 | COc1cccc(OC)c1C(=O)OCC(=O)Nc1ccc(OC(F)(F)F)cc1 | 14.6 µM [falling, partial curve, poor fit] | 
40 | Cc1cc(NC(c2ccc(Cl)cc2)c2ccc3cccnc3c2O)no1 (stereo not drawn) | 1.64 µM [falling, partial curve, poor fit] | 
41 | Cc1nc(-c2ccc(C(=O)Nc3ccc(F)cc3)cc2)cs1 | 3.16 µM [falling, partial curve, poor fit] | 
42 | COn1c(=S)[nH]c2ccccc2c1=O | 3.16 µM [rising, partial curve, poor fit] | 
